Data as given in patent US9234006B2, “Compounds” (Novacta Biosystems Limited, priority 2011, dated 2016).
Structures can show the parent of a compound that is named as a salt. At least one compound was matched to its structure with a doubt left. *1 amine or outer side, *2 acyl side, *3 side chain or, on linkers, in order; H or OH if unused. Where a SMILES comes first, the peptide text is derived from it. Bridges are numbered along the chain shown (N, C = ends). [ ]: non-standard residue; d: D form. The star is where a group is joined. ξ: configuration not given here. Propanoyl(3-NMe2) = CN(C)CCC(=O)*; NMeβAla = CN(CCC(=O)[*:2])[*:1]; Thr(3ξ) = CC(O)[C@H](N)C(=O)O; Dab = NCC[C@H](N)C(=O)O

Test system: E. coli NCTC12900
Assay: MIC susceptibility testing, broth microdilution in CaMHB
Format: cell-based, Escherichia coli
Conditions: Table 4
Experimental: To evaluate the potency and spectrum of the compounds, susceptibility testing was performed against four strains of each of the four Gram negative pathogens, Escherichia coli, Pseudomonas aeruginosa, Klebsiella pneumoniae and Acinetobacter baumannii.
The day before testing, 3 to 4 colonies were picked from fresh Mueller-Hinton Agar (MHA) plate and transferred into 10 mL of Cation adjusted MHB (CaMHB). Cultures were incubated at 37° C. 250 rpm for 18-20 hours before being diluted 100-fold in fresh CaMHB. The subcultures were grown further until the OD600 reached 0.2-0.3 corresponding to […]. The actively growing cultures were diluted 100-fold in fresh medium and used for the inoculum.
The assays were performed in duplicate.
Data was obtained under similar conditions to Table 4 except that different batches of cation-adjusted Muller-Hinton broth were used. The MIC values for these compounds are compared with those values obtained for Polymyxin B, Colistin Sulphate, CB-182,804 and NAB739 (as the TFA salt). CB-182,804 is a polymyxin decapeptide derivative with an aryl urea substituent at the N-terminus, which has been claimed to have lower toxicity than Polymyxin B (compound 5 in WO 2010/075416. See page 37). NAB739 has been described previously by Vaara et al.

Structure (SMILES): CC(C)C[C@@H]1NC(=O)[C@@H](Cc2ccccc2)NC(=O)[C@H](CCN)NC(=O)[C@@H](NC(=O)[C@H](CCN)NC(=O)[C@@H](NC(=O)CCN(C)C)C(C)O)CCNC(=O)[C@H](C(C)O)NC(=O)[C@H](CCN)NC(=O)[C@H](CCN)NC1=O (some centres unmarked) [Example 5, 3-(N,N-dimethylamino)-propanoyl Polymyxin B Nonapeptide, Sulphate Salt] ({Propanoyl(3-NMe2)}-[Thr(3ξ)][Dab][Dab][Dab][dF]L[Dab][Dab][Thr(3ξ)]; lactam 3-C)
- MIC: 2 micrograms/mL

Structure (SMILES): CNCCC(=O)N[C@H](C(=O)N[C@@H](CCN)C(=O)N[C@H]1CCNC(=O)[C@H](C(C)O)NC(=O)[C@H](CCN)NC(=O)[C@H](CCN)NC(=O)[C@H](CC(C)C)NC(=O)[C@@H](Cc2ccccc2)NC(=O)[C@H](CCN)NC1=O)C(C)O (some centres unmarked) [Example 10, 3-(N-methylamino)Propanoyl Polymyxin B Nonapeptide, Sulphate Salt] (NMeβAla-[Thr(3ξ)][Dab][Dab][Dab][dF]L[Dab][Dab][Thr(3ξ)]; lactam 3-C)
- MIC: 2 micrograms/mL
